PubChem BioAssay AID624297 (National Center for Advancing Translational Sciences (NCATS), 2012)
Hit rate of the full screen: of about 340,000 compounds, about 6,200 (1.8%) were called active. The shares of active, inactive and inconclusive entries below differ from those in the screen. Calls follow the shape of the dose curve; as a rule, active = well fitted activation curve with a large enough effect; inconclusive = small, poorly fitted or top-dose-only effect; inactive = no such curve, though single readings can be large or run the other way. Potencies beside an inconclusive call are fits to weak or partial responses and may not hold up.

assay: A quantitative high throughput screen for small molecules that induce DNA re-replication in SW480 colon adenocarcinoma cells.; also: nearly all actives have a fitted effect of over 55% in size; as to re-replication activation: % of control where 0% means no effect; conditions: Hoechst DNA content imaging, 48 h; re-replication activation: at 46.1 µM (top of the series) unless noted
Procedure, shortened: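 Treated cells incubate 48 hr (37 C, 5% CO2), are stained 40 min with Hoechst, and nuclear fluorescence is enumerated; a rise in nuclei with high DNA signal marks re-replication.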
Potency is read from the fitted curve at half-maximal effect.

**Q.** Which “re-replication activation” value does the source give for COc1ccc(Cc2nc3ccc(C(=O)N(C)Cc4nccs4)cc3o2)cc1OC here?
**A.** inactive: 1.59%

**Q.** With CCCOc1ccc(C(=O)N(CC(C)C)c2c(N)n(Cc3ccccc3)c(=O)[nH]c2=O)cc1 as the molecule, how does the Potency read?
**A.** inconclusive: 14.6 µM [activator, single point]

**Q.** For O=C(CCCN1C(=O)c2cccc3cccc(c23)C1=O)NCc1cccs1, which “re-replication activation” value is on record?
**A.** inactive: -1.24%

**Q.** With Cc1ccc2nc(-c3ccncc3)cc(C(=O)NCCc3ccc(F)cc3)c2c1 as the molecule, how does the Potency read?
**A.** inconclusive: 16.4 µM [activator, partial curve, poor fit]

**Q.** With O=C(CNC(=O)c1ccc(Br)cc1)c1ccccc1 as the molecule, how does the Potency read?
**A.** inconclusive: 9.2 µM [activator, single point]

**Q.** Which Potency does the source give for Clc1ccc(/C=C/c2nc3ccccc3[nH]2)c(Cl)c1 here?
**A.** inconclusive: 13 µM [activator, single point]

**Q.** With COc1ccc(/C=C2/SC(=S)N(CCC(=O)N3CCN(C)CC3)C2=O)cc1 as the molecule, how does the Potency read?
**A.** inconclusive: 18.4 µM [activator, partial curve, poor fit]

**Q.** With Cc1csc(CNc2ncnc3ccc(-c4ccc5c(c4)OCO5)cc23)c1 as the molecule, how does the Potency read?
**A.** inconclusive: 5.8 µM [activator, full curve, poor fit]

**Q.** With CN(C)CCN[C@H]1CCC2C3CC=C4C[C@@H](O)CC[C@]4(C)C3CC[C@@]21C (stereo partly specified) as the molecule, how does the Potency read?
**A.** inconclusive: 25.9 µM [activator, single point]

**Q.** For CN1CCN(C(=S)Nc2ccc(S(N)(=O)=O)cc2)CC1, which “re-replication activation” value is on record?
**A.** inactive: -35.5%

**Q.** With COc1ccccc1OCc1nc2ccccc2n1C as the molecule, how does the “re-replication activation” value read?
**A.** inactive: 4.21%

**Q.** With CCCOc1ccc(C(=O)NC(=S)NCc2cccnc2)cc1 as the molecule, how does the Potency read?
**A.** inconclusive: 23.1 µM [activator, partial curve, poor fit]

**Q.** Which “re-replication activation” value does the source give for COc1cc(NC(=O)C2CC3CCC2C3)c(OC)cc1Cl (stereo unspecified) here?
**A.** inactive: 28.3%

**Q.** Which Potency does the source give for CC(=O)Nc1nc(-c2ccc3c(c2)CCN3S(C)(=O)=O)cs1 here?
**A.** inconclusive: 6.51 µM [activator, single point]

**Q.** For CC(=O)N/C(=C\c1ccccc1)C(=O)OC(C)C(=O)Nc1ccccc1F (stereo unspecified), which “re-replication activation” value is on record?
**A.** inactive: -8.96%

**Q.** With CCc1ccc(N/C(SCc2ccccc2C)=C(/C#N)C(=O)NCc2ccco2)cc1 as the molecule, how does the Potency read?
**A.** active: 3.66 µM

**Q.** Which Potency does the source give for CC1CCCC(C)N1CCCNC(=O)c1cc2c(s1)-c1ccccc1OC2 (stereo unspecified) here?
**A.** inconclusive: 29.1 µM [activator, single point]

**Q.** Which Potency does the source give for COc1cccc(N=c2oc3ccc(OC)cc3cc2-c2nc3ccccc3[nH]2)c1 here?
**A.** inconclusive: 2.31 µM [activator, full curve]

**Q.** Which Potency does the source give for COc1ccc(/C=C2\C(=O)NC(=S)N2C(=O)c2ccc(C)cc2)cc1 here?
**A.** inconclusive: 0.0058 µM [activator, full curve, poor fit]

**Q.** Which Potency does the source give for COc1ccc(-c2ccc(N(C)C)cc2)cc1[C@H]1[C@@H]2C=CCC[C@@]2(C)C(=O)N1Cc1ccccc1 here?
**A.** inconclusive: 25.9 µM [activator, partial curve, poor fit]

**Q.** For O=C(CSc1nc2ccccc2c(=O)n1CCCN1CCOCC1)Nc1cccc(S(=O)(=O)N2CCCCCC2)c1, which Potency is on record?
**A.** inconclusive: 16.4 µM [activator, single point]

**Q.** Which Potency does the source give for CCN(C[C@H]1N[C@@](Cc2ccccc2)(C(=O)OC)[C@H]2C(=O)N(Cc3ccccc3)C(=O)[C@@H]12)S(=O)(=O)c1ccc(-c2ccccc2)cc1 here?
**A.** inconclusive: 1.16 µM [activator, full curve, poor fit]

**Q.** Which Potency does the source give for CN1CCN(c2ccc(S(=O)(=O)N3CCOCC3)cc2NC(=O)COc2ccc(F)cc2Cl)CC1 here?
**A.** inconclusive: 32.6 µM [activator, partial curve, poor fit]

**Q.** For O=[N+]([O-])c1ccccc1/C=C/C=N/Nc1nc(N2CCCCC2)nc(N2CCCCC2)n1, which “re-replication activation” value is on record?
**A.** inactive: -2.41%

**Q.** Which “re-replication activation” value does the source give for CN(C(=O)c1cccc(NC(=O)Cc2cccc(NC(=O)C3CCCN(C(=O)C4CCC4)C3)c2)c1)C1CCC1 (stereo unspecified) here?
**A.** inactive: 1.77%

**Q.** Which Potency does the source give for COc1ccc(N(CC(=O)NCc2ccncc2)S(=O)(=O)c2ccc(C)c([N+](=O)[O-])c2)cc1 here?
**A.** inconclusive: 20.6 µM [activator, single point]

**Q.** Which Potency does the source give for CCOc1ccc(/C=C/c2nc(C#N)c(NCCCN(C)C)o2)cc1 here?
**A.** active: 18.4 µM

**Q.** Which “re-replication activation” value does the source give for O=C(Nc1nnc(-c2ccc(Cl)s2)o1)C1CC1 here?
**A.** inactive: -13.8%

**Q.** Which Potency does the source give for COc1ccc(C2CC(=O)N3CN(Cc4ccco4)CSC3=C2C#N)cc1 (stereo unspecified) here?
**A.** inconclusive: 6.51 µM [activator, single point]

**Q.** For O=C1CCCCC1Nc1ccc2ccccc2c1 (stereo unspecified), which Potency is on record?
**A.** inconclusive: 3.26 µM [activator, partial curve, poor fit]

**Q.** Which Potency does the source give for O=C(NCc1ccccc1)C1=C[C@H](c2csc3ccccc23)C[C@H](OCCCCO)O1 here?
**A.** inconclusive: 10.3 µM [activator, single point]

**Q.** For Cc1cc(/C=C(\C#N)C(=O)N2CCCCC2)cc(C)c1O, which Potency is on record?
**A.** inconclusive: 18.4 µM [activator, single point]

**Q.** Which Potency does the source give for Cc1cc(OCCN2CCOCC2)ccc1[N+](=O)[O-] here?
**A.** inconclusive: 0.116 µM [activator, full curve, poor fit]

**Q.** With Cn1c(=O)c2c(nc(CN3CCN(c4ccccc4)CC3)n2Cc2ccccc2Cl)n(C)c1=O as the molecule, how does the Potency read?
**A.** inconclusive: 20.6 µM [activator, single point]

**Q.** Which “re-replication activation” value does the source give for CC(C)c1cccc(C(C)C)c1NC(=O)CN1C(=O)NC2(CCCCCCC2)C1=O here?
**A.** inactive: -3.53%

**Q.** Which “re-replication activation” value does the source give for O=S1(=O)N[C@H](c2ccccc2)C[C@H](c2ccc(C(F)(F)F)cc2)O1 here?
**A.** inactive: 0.34%

**Q.** For Cc1ccc(S(=O)(=O)/N=C(\CCl)N2CCOCC2)cc1, which Potency is on record?
**A.** inconclusive: 13 µM [activator, partial curve, poor fit]

**Q.** With COc1cc2ccccc2cc1C(=O)N(CCN(C)C)c1nc2ccc(C)cc2s1 as the molecule, how does the Potency read?
**A.** inconclusive: 23.1 µM [activator, single point]

**Q.** With CSC1=N/C(=C\c2ccc(F)cc2)C(=O)S1 as the molecule, how does the “re-replication activation” value read?
**A.** inactive: 2.71%

**Q.** Which “re-replication activation” value does the source give for COc1ccc(C)cc1NC(=S)NNC(=O)c1ccccc1Cl here?
**A.** inactive: -12.1%

**Q.** For CN/N=C(\Cc1nc2ccccc2[nH]1)c1ccc([N+](=O)[O-])cc1, which “re-replication activation” value is on record?
**A.** inactive: -3.33%

**Q.** With CC(SC(=S)N1CCOCC1)C(=O)O (stereo unspecified) as the molecule, how does the re-replication activation read?
**A.** inactive: 2.69% [at 9.22 µM]

**Q.** Which Potency does the source give for O=C(Nc1ccc(Br)cn1)c1cccc(-c2cc3ccccc3oc2=O)c1 here?
**A.** inconclusive: 29.1 µM [activator, single point]

**Q.** For CCOc1ccccc1NC(=S)NCc1cccn1C, which Potency is on record?
**A.** inconclusive: 18.4 µM [activator, single point]

**Q.** With CC(NC(=O)c1ccccc1Br)c1nnc(SCC(=O)NC2CCCCC2)n1C (stereo unspecified) as the molecule, how does the Potency read?
**A.** inconclusive: 0.112 µM [activator, full curve, poor fit]

**Q.** With COc1cc2cc(C(=O)N/N=C/c3ccccc3Cl)[nH]c2cc1OC as the molecule, how does the Potency read?
**A.** inconclusive: 20.6 µM [activator, single point]

**Q.** With CCN1CCN(Cc2ccc(NC(=O)c3ccc(C)c(NC(=O)N4CCNC4=O)c3)cc2C(F)(F)F)CC1 as the molecule, how does the Potency read?
**A.** inactive

**Q.** For CCCCNC(=O)C1c2cc(OC)c(OC)cc2C(=O)N(C)C1c1cccs1 (stereo unspecified), which Potency is on record?
**A.** inconclusive: 0.326 µM [activator, partial curve, poor fit]

**Q.** For CC(=O)c1ccc(-c2cccc(-c3nc4ccccn4c3NC3CCCCC3)c2)cc1, which Potency is on record?
**A.** inconclusive: 20.6 µM [activator, partial curve, poor fit]

**Q.** Which “re-replication activation” value does the source give for COc1cc(C(=O)N2CCN(S(=O)(=O)c3cc(C)ccc3C)CC2)ccc1OCC(=O)N1CCOCC1 here?
**A.** inactive: -16.7%

**Q.** With O=C(COC(=O)c1cc([N+](=O)[O-])ccc1N1CCOCC1)Nc1ccc(Cl)cn1 as the molecule, how does the Potency read?
**A.** inconclusive: 29.1 µM [activator, single point]

**Q.** With CN(C(=O)Cn1cnc2ccccc2c1=O)C1CCS(=O)(=O)C1 (stereo unspecified) as the molecule, how does the “re-replication activation” value read?
**A.** inactive: 14%

**Q.** For Cc1ccc(S(=O)(=O)Cc2ccc(C(=O)N3CCN(c4ccccn4)CC3)o2)cc1, which Potency is on record?
**A.** inconclusive: 25.9 µM [activator, single point]

**Q.** With O=C(Nc1nnc(C2=COCCO2)o1)c1ccc(Cc2ccccc2)cc1 as the molecule, how does the Potency read?
**A.** inconclusive: 29.1 µM [activator, partial curve, poor fit]

**Q.** Which Potency does the source give for O=C1NC2(CCCCCC2)C(=O)N1Cc1cccc([N+](=O)[O-])c1 here?
**A.** inconclusive: 20.6 µM [activator, single point]

**Q.** Which “re-replication activation” value does the source give for CCc1ccc(C(=O)CN2C(=O)NC(C)(c3ccc(C)cc3)C2=O)cc1 (stereo unspecified) here?
**A.** inactive: -65%

**Q.** Which Potency does the source give for CCN1CCN(S(=O)(=O)c2ccc(S(=O)(=O)NC3CC3)cc2)CC1 here?
**A.** inconclusive: 29.1 µM [activator, single point]

**Q.** With CC(=O)c1nn(-c2ccc(C(F)(F)F)cc2)c(=O)[nH]c1=O as the molecule, how does the Potency read?
**A.** inconclusive: 18.4 µM [activator, single point]

**Q.** For CCOC(=O)/C=C/S(=O)(=O)c1ccc(NC(C)=O)cc1, which Potency is on record?
**A.** active: 2.59 µM

**Q.** With Cc1nn(-c2ccccc2)c(NC(=O)c2cccs2)c(-c2ccccc2Cl)c1=O as the molecule, how does the Potency read?
**A.** inconclusive: 0.13 µM [activator, full curve, poor fit]

**Q.** Which Potency does the source give for CC(=NNc1nc2ccccc2s1)c1ccncn1 here?
**A.** inconclusive: 0.184 µM [activator, full curve, poor fit]

**Q.** For CN(CCOCCOc1ccc(F)cc1)Cc1ccccc1, which Potency is on record?
**A.** inconclusive: 29.1 µM [activator, single point]

**Q.** Which Potency does the source give for C=CCc1ccc(OCCCN2CCCC(C)C2)c(OC)c1 (stereo unspecified) here?
**A.** inconclusive: 29.1 µM [activator, single point]

**Q.** For NC(=O)C1CCN(CCCNC2CC(=O)N(Cc3ccc(N4CCCC4=O)cc3)C2=O)CC1 (stereo unspecified), which Potency is on record?
**A.** inconclusive: 29.1 µM [activator, partial curve, poor fit]

**Q.** For COc1ccc(N2CCN(C(=O)CCc3ccccc3)CC2)cc1, which Potency is on record?
**A.** inconclusive: 3.26 µM [activator, full curve, poor fit]

**Q.** Which Potency does the source give for Cn1nc(C(=O)OCC(=O)c2ccc[nH]2)c2ccccc2c1=O here?
**A.** inconclusive: 23.1 µM [activator, single point]
